In paper PMC7862700:
The list shows a part of the results, in another mix than the full data. At the low end of the ranking, values are background and their order means little.

Sequences of proteins named here, by UniProt entry; tags and fusion partners are left off. A change or cut given only in a name is not applied to a line headed by its entry.
UniProt Q01892: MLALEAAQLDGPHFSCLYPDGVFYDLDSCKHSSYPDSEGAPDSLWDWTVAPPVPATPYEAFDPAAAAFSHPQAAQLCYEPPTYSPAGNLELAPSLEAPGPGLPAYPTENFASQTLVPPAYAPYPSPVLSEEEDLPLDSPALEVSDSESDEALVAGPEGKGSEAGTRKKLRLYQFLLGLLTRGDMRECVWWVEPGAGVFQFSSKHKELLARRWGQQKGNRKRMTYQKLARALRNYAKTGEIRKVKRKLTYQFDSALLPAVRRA
UniProt P41161: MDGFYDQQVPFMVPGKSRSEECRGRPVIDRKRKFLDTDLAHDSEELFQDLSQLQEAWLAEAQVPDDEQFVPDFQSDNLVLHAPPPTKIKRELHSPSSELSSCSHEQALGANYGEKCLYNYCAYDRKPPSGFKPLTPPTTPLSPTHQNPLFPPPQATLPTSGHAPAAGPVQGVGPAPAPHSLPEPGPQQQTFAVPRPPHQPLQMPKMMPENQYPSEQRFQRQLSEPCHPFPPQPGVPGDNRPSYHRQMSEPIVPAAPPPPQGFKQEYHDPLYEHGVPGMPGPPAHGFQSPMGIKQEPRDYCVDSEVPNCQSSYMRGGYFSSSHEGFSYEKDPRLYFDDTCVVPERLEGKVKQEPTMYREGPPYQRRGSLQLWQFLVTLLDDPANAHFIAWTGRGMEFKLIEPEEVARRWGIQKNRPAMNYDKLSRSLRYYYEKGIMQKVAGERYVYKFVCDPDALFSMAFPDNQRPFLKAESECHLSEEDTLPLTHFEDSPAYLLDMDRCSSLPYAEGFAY
UniProt Q99607: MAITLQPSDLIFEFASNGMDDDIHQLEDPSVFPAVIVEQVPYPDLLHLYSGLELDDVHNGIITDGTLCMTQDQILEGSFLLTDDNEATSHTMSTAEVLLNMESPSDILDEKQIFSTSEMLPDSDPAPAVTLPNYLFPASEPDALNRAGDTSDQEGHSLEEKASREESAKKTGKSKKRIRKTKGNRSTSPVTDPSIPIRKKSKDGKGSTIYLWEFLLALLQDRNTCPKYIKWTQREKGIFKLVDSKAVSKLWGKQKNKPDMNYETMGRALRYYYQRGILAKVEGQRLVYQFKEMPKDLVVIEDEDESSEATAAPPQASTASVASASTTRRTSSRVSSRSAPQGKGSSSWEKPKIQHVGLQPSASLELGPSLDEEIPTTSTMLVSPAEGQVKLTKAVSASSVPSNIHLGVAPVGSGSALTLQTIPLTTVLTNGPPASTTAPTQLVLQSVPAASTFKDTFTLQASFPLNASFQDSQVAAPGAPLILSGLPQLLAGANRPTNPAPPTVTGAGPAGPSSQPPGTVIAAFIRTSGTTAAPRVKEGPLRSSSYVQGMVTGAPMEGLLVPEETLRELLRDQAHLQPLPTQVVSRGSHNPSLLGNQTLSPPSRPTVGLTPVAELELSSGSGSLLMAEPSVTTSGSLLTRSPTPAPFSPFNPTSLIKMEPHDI

Experiments:
Experiment in all cases: DAPPL (digital affinity profiling via proximity ligation, sequencing)
Conditions in all cases: 10 mM Tris-HCl pH 7.5, 50 mM NaCl, 1 mM DTT, 4% glycerol, room temperature, 30 min; GST-TFs on glutathione beads, 16-mer random dsDNA library, 0.1% …; high values mean tight binding; double strand, one strand shown; scale: fold enrichment (6-mer frequency, TF over GST control)
FLI1 = target: T1, FLI1 (UniProt Q01543)
T1 sequence: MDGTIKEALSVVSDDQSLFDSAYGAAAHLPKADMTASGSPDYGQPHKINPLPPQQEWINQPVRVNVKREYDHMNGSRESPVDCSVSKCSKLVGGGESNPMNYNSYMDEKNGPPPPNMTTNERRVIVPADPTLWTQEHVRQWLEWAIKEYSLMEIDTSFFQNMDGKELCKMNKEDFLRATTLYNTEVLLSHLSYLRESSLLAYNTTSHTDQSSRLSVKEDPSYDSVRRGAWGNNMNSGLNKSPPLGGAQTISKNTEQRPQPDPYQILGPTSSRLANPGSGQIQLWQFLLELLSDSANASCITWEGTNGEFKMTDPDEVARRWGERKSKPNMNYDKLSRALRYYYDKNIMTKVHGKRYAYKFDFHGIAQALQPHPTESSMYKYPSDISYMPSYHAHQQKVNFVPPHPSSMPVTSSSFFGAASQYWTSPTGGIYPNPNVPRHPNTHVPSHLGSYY

EHF = target: T2, EHF (UniProt Q9NZC4)
T2 sequence: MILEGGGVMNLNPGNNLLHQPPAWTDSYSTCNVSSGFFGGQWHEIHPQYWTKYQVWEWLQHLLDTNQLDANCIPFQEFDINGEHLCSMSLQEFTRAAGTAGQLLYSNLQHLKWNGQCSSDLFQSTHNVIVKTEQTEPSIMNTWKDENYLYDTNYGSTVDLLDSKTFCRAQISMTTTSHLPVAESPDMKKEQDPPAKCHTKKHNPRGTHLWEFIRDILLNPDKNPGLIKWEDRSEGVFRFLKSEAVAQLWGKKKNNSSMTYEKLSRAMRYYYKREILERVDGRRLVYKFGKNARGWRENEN

SPIB = SPIB (UniProt Q01892)
ETV5 = ETV5 (UniProt P41161)
ELF4 = ELF4 (UniProt Q99607)
ETV2 = target: T3, ETV2 (UniProt O00321)
T3 sequence: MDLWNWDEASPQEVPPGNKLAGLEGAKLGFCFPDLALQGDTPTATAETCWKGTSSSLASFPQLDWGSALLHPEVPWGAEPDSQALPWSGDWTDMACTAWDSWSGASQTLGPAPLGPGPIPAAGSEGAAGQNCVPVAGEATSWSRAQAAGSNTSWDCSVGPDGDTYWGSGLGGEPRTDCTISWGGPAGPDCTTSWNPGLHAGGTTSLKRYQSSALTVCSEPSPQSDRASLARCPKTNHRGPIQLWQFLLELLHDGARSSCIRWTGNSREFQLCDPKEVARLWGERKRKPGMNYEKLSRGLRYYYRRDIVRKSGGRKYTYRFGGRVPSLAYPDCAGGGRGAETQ

ETV3L = target: T4, ETV3L (UniProt Q6ZN32)
T4 sequence: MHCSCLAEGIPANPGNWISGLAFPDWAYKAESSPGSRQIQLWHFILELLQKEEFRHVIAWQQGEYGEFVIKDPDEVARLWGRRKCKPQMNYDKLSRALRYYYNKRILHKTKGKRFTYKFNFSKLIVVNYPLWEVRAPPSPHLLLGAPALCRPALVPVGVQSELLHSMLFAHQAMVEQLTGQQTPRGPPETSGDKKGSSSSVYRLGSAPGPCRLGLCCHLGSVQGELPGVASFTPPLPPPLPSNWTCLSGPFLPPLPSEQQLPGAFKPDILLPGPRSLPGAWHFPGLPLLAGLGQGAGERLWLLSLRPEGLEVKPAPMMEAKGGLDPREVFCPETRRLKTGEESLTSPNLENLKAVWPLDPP

Sequence | binding signal (FLI1) | binding signal (EHF) | binding signal (SPIB) | binding signal (ETV5) | binding signal (ELF4) | binding signal (ETV2) | binding signal (ETV3L)
GGAATC | 0.693 | 0.747 | 0.698 | 0.802 | 0.704 | 0.724 | 0.768
GTGGGG | 0.561 | 0.566 | 0.603 | 0.559 | 0.606 | 0.444 | 0.622
GGGAGC | 0.38 | 0.376 | 0.384 | 0.405 | 0.377 | 0.371 | 0.403
ACGTGC | 0.666 | 0.764 | 0.636 | 0.684 | 0.727 | 0.821 | 0.713
CCGTCG | 0.847 | 0.929 | 0.835 | 0.758 | 0.783 | 0.843 | 0.802
CATCGG | 0.7 | 0.698 | 0.707 | 0.615 | 0.69 | 0.614 | 0.725
AGGCGA | 0.532 | 0.501 | 0.552 | 0.516 | 0.545 | 0.498 | 0.524
GAAGGA | 0.694 | 0.788 | 0.779 | 0.792 | 0.69 | 0.726 | 0.701
CGGCGA | 0.688 | 0.711 | 0.748 | 0.715 | 0.819 | 0.861 | 0.736
GATGAG | 0.763 | 0.903 | 0.828 | 0.913 | 0.837 | 0.756 | 0.809
GCAGCG | 0.798 | 0.777 | 0.883 | 0.851 | 0.796 | 0.827 | 0.864
ACTGTG | 0.471 | 0.479 | 0.484 | 0.498 | 0.489 | 0.564 | 0.567
CGAGTG | 0.806 | 0.821 | 0.714 | 0.762 | 0.907 | 0.984 | 0.865
GCGCAT | 0.842 | 0.881 | 0.926 | 0.888 | 0.851 | 0.702 | 0.865
GGGCCC | 0.796 | 0.775 | 0.862 | 0.808 | 0.832 | 0.866 | 0.76
AGGCCA | 0.633 | 0.712 | 0.607 | 0.65 | 0.676 | 0.679 | 0.642
GTTCGG | 0.568 | 0.65 | 0.63 | 0.681 | 0.628 | 0.554 | 0.62
CCGTGG | 0.381 | 0.415 | 0.448 | 0.406 | 0.409 | 0.387 | 0.395
GAGCCA | 0.599 | 0.66 | 0.554 | 0.573 | 0.645 | 0.658 | 0.584
CGGGTT | 0.884 | 0.945 | 0.863 | 0.92 | 0.902 | 0.802 | 0.815

Sequence | binding signal (FLI1) | binding signal (EHF) | binding signal (SPIB) | binding signal (ETV5) | binding signal (ELF4) | binding signal (ETV2) | binding signal (ETV3L)
CAAAGG | 0.838 | 0.832 | 0.793 | 0.83 | 0.872 | 0.974 | 0.807
CAGTCA | 0.489 | 0.473 | 0.485 | 0.47 | 0.506 | 0.455 | 0.487
GACAGA | 0.64 | 0.645 | 0.647 | 0.664 | 0.687 | 0.664 | 0.654
GATCAG | 0.736 | 0.769 | 0.682 | 0.717 | 0.735 | 0.751 | 0.791
AAGCCA | 0.88 | 0.826 | 0.839 | 0.911 | 0.903 | 0.837 | 0.849
CAGTCT | 0.794 | 0.76 | 0.747 | 0.693 | 0.755 | 0.709 | 0.705
AGTCGA | 0.438 | 0.396 | 0.419 | 0.39 | 0.415 | 0.362 | 0.409
AAGTCG | 0.524 | 0.466 | 0.477 | 0.467 | 0.473 | 0.46 | 0.484
AGTCAG | 0.499 | 0.464 | 0.456 | 0.49 | 0.509 | 0.49 | 0.454
GGGGCC | 0.538 | 0.596 | 0.547 | 0.549 | 0.613 | 0.503 | 0.577
GGACGT | 0.662 | 0.579 | 0.613 | 0.548 | 0.562 | 0.601 | 0.566
CGAGGC | 0.687 | 0.631 | 0.682 | 0.626 | 0.718 | 0.653 | 0.621
GAGGGT | 0.549 | 0.536 | 0.608 | 0.584 | 0.529 | 0.545 | 0.58
CGTAGA | 0.77 | 0.667 | 0.682 | 0.682 | 0.692 | 0.759 | 0.693
GGTCAG | 0.593 | 0.515 | 0.624 | 0.532 | 0.568 | 0.565 | 0.57
CGCAGA | 0.827 | 0.772 | 0.844 | 0.768 | 0.747 | 0.895 | 0.688
TCGGAC | 0.362 | 0.397 | 0.345 | 0.334 | 0.349 | 0.377 | 0.383
GGGTTA | 0.861 | 0.818 | 0.792 | 0.802 | 0.808 | 0.831 | 0.802
GGCGCG | 0.641 | 0.721 | 0.584 | 0.637 | 0.713 | 0.608 | 0.752
ACCGCG | 0.913 | 0.793 | 0.833 | 0.819 | 0.868 | 0.947 | 0.85

Sequence | binding signal (FLI1) | binding signal (EHF) | binding signal (SPIB) | binding signal (ETV5) | binding signal (ELF4) | binding signal (ETV2) | binding signal (ETV3L)
AGGCGG | 0.236 | 0.288 | 0.273 | 0.251 | 0.228 | 0.239 | 0.259
CGTAAG | 0.776 | 0.781 | 0.737 | 0.754 | 0.758 | 0.802 | 0.806
ACCGAG | 0.777 | 0.78 | 0.652 | 0.78 | 0.743 | 0.769 | 0.728
TGAGGA | 0.691 | 0.708 | 0.666 | 0.667 | 0.664 | 0.644 | 0.66
CGTGTG | 0.46 | 0.421 | 0.443 | 0.42 | 0.418 | 0.41 | 0.426
AGCCAG | 0.481 | 0.499 | 0.432 | 0.479 | 0.488 | 0.458 | 0.456
CATGTG | 0.78 | 0.818 | 0.907 | 0.85 | 0.819 | 0.934 | 0.933
AGGAGG | 0.234 | 0.219 | 0.214 | 0.231 | 0.203 | 0.232 | 0.22
GAGCGG | 0.528 | 0.508 | 0.506 | 0.537 | 0.513 | 0.534 | 0.505
GGCGCA | 0.586 | 0.622 | 0.595 | 0.573 | 0.608 | 0.575 | 0.584
GGTGCG | 0.623 | 0.643 | 0.596 | 0.585 | 0.598 | 0.643 | 0.583
GCAGTC | 0.462 | 0.438 | 0.448 | 0.444 | 0.488 | 0.459 | 0.492
TAGCCA | 0.823 | 0.83 | 0.775 | 0.737 | 0.882 | 0.929 | 0.798
GACGAA | 0.879 | 0.899 | 0.936 | 0.898 | 0.862 | 0.779 | 0.862
ACACGT | 0.743 | 0.806 | 0.746 | 0.844 | 0.806 | 0.756 | 0.791
GTGAGT | 0.136 | 0.139 | 0.123 | 0.141 | 0.122 | 0.12 | 0.135
GGCACA | 0.847 | 0.859 | 0.904 | 0.844 | 0.863 | 0.798 | 0.853
GGCAAA | 0.895 | 0.916 | 0.946 | 0.941 | 0.937 | 0.913 | 0.906
GTCTGT | 0.935 | 0.906 | 0.938 | 0.887 | 0.932 | 0.858 | 0.887
GGCGCC | 0.736 | 0.639 | 0.708 | 0.653 | 0.747 | 0.752 | 0.722

An excerpt of these results, tab-delimited.
Sequence	binding signal (FLI1)	binding signal (EHF)	binding signal (SPIB)	binding signal (ETV5)	binding signal (ELF4)	binding signal (ETV2)	binding signal (ETV3L)
GGGAGC	0.38	0.376	0.384	0.405	0.377	0.371	0.403
AAGTCG	0.524	0.466	0.477	0.467	0.473	0.46	0.484
GGCGCC	0.736	0.639	0.708	0.653	0.747	0.752	0.722
